The values below come from US6982142B2, “Methods for screening therapeutically effective agents” (John Wayne Cancer Institute, priority 1997, dated 2006).

In the series the test system is MCF-7-AdrR cells. Put plainly: Metabolic fate of C6-ceramide (TLC, H2SO4 charring) in MDR cells. It counts as cell-based, human. As to conditions: C6-ceramide 10 μM, 24 hr, serum-free medium.

With `CCCCCCCCCCCCC/C=C/[C@@H](O)[C@H](CO)NC(=O)CCCCC` [C6-ceramide, N-hexanoylsphingosine], the “free C6-ceramide in cells” value was “undetectable” and the “glucosyl-C6-ceramide (glycosylation product) in cells, compared with wild-type cells” value is recorded as “markedly increased”.
